Data taken from publication PMC4130924 (Protein & Cell, 2014).
Results are given in words; binding and its absence hold for the method and conditions named.

Chains of the proteins cited; added tags and fusions are not shown. Lines headed by an entry give the natural chain unless they say otherwise; changes in a name come on top. Residues count along the entry.
UniProt Q9Y5K5, residues 1-255: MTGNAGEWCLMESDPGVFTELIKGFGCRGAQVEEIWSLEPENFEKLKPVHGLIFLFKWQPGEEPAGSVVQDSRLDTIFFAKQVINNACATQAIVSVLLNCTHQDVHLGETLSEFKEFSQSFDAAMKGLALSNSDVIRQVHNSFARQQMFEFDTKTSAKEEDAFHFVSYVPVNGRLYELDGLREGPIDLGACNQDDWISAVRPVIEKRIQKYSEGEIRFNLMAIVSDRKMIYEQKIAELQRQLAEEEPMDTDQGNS

Target: Uch37Δ^Hb,Hc,KEKE (human) (UniProt Q9Y5K5)
Test: SEC; approximately 10 mg/mL loaded (Table 1: 10.0 for Uch37; >7.0, >4.0, >1.5 for the truncations) on a 120-mL Superdex G200 column; 20 mmol/L Tris-HCl pH 8.0, 200 mmol/L NaCl, 2 mmol/L DTT; MW from a standard curve; both purified

Substance: Uch37Δ^Hb,Hc,KEKE (from UniProt Q9Y5K5 1-255) (domain or fragment)
- binding: no binding (tested: >7.0 mg/mL)
